Source: PubChem BioAssay AID2685 (National Center for Advancing Translational Sciences (NCATS), 2010)
The list shows a part of the results. Shown are side measurements of this screen, not its main read-out; they come without a call. The list favours compounds with an active or inconclusive main result. Words in brackets tell the shape of the fitted curve; partial curves, single points and poor fits give uncertain potencies.

Assay: qHTS Assay for Lipid Storage Modulators in Drosophila S3 Cells;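 for cell number change: cells counted by Cell Tracker Red CMTPX staining in the red channel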
Conditions: BODIPY lipid droplet fluorescence, 18-24 h; for cell number change: measured here: cell count max response, cells fed with added oleic acid
Summary of the method: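 Laser-scanning cytometry quantifies lipid droplet accumulation (500–530 nm total intensity; droplet/cell object ratio) in oleic acid-fed (400 uM added) Drosophila S3 cells treated with a concentration series. 20 uM Triacsin C defined 100% inhibition.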

[1] = measured here: lipid fluorescence (Fed channel) AC50, cells fed with added oleic acid
[2] = measured here: cell number channel AC50, cells fed with added oleic acid

Row | Structure (SMILES) | cell number change | AC50 [1] | AC50 [2]
1 | CSCC[C@H](NC(=O)Cc1c(C)c2cc3c4c(oc3cc2oc1=O)CCCC4)C(=O)O | 12.8% | 29.1 µM [falling, single point] | 
2 | COc1ccc(-n2c(SCC(=O)Nc3nc(C)cs3)nnc2-c2ccoc2C)cc1 | -39.7% | 0.58 µM [falling, full curve, poor fit] | 0.731 µM [falling, full curve, poor fit]
3 | CCCCn1c(N)c(N(CCC(C)C)C(=O)c2ccc(C)o2)c(=O)[nH]c1=O | -20.5% | 2.06 µM [falling, partial curve, poor fit] | 
4 | CCOc1ccc(S(=O)(=O)NCCC(=O)N2CCN(c3ccccc3O)CC2)cc1 | 30% |  | 0.291 µM [rising, single point]
5 | CC(=O)c1ccccc1OCC(O)Cn1ccnc1 (configuration not stated) |  | 5.8 µM [rising, full curve] | 1.46 µM [rising, partial curve]
6 | CN(C)C(=O)C(OC(=O)c1ccc2c(c1)CCCC2)c1ccccc1 (configuration not stated) |  | 0.82 µM [falling, full curve] | 
7 | COc1ccccc1CN1CC(C(=O)N2CCN(c3ccc(F)cc3)CC2)CC1=O (configuration not stated) |  |  | 1.84 µM [rising, single point]
8 | CC(NC(=O)C(=O)NCCCn1ccnc1)c1ccccc1 (configuration not stated) | 22% | 2.06 µM [rising, full curve, poor fit] | 
9 | Cc1cccc(CNc2ncnc3ccc(-c4ccc5c(c4)OCO5)cc23)c1 | 3.27% | 20.6 µM [falling, single point] | 
10 | CCOc1ccc2oc(C(=O)NCc3ccccc3CN3CCCC3)c(C)c2c1 | -34.5% | 4.11 µM [falling, full curve, poor fit] | 16.4 µM [falling, partial curve]
11 | COC(=O)c1c(NC(=O)CN2CCOCC2)sc2c1CCC(C)C2 (configuration not stated) | -17.8% | 0.82 µM [rising, single point] | 
12 | CC(C)CCOc1ccc(C(=O)N2CCCC2C(=O)O)cc1 (configuration not stated) |  | 2.06 µM [rising, partial curve, poor fit] | 
13 | CC1Cc2nc(SCC(=O)Nc3nc4ccccc4s3)n(C)c(=O)c2S1 (configuration not stated) | 6.65% | 6.51 µM [rising, single point] | 
14 | C/C(=N/NS(=O)(=O)c1ccc(F)cc1)c1ccc(NC(=O)c2ccc(C)o2)cc1 | 27.1% |  | 
15 | O=C(CC1NC(=O)NC1=O)NC1(C(=O)NC2CCCCC2)CCCCC1 (configuration not stated) | -11.9% | 7.31 µM [falling, single point] | 
16 | COc1cc(/C=N/NC(=O)C[n+]2ccccc2)cc(OC)c1OC | -11.4% | 1.03 µM [falling, full curve, poor fit] | 
17 | CCOc1ccc(N2C(=O)C3C(c4ccc(O)cc4)NC(CCSC)(C(=O)OC)C3C2=O)cc1 (configuration not stated) | -20.8% | 0.0058 µM [falling, full curve, poor fit] | 
18 | CCOc1ccc(CCNC(=O)CCc2nc(-c3ccc(OC)cc3)no2)cc1OCC | -61.2% | 18.4 µM [falling, partial curve] | 4.61 µM [falling, full curve]
19 | O=[N+]([O-])c1ccc2[nH]c3nc4ccccc4nc3c2c1 | 32.6% | 6.51 µM [falling, single point] | 29.1 µM [rising, single point]
20 | CCCOP(=O)(OCCC)c1c([N+](=O)[O-])cc(C(F)(F)F)cc1[N+](=O)[O-] | -11.3% | 13 µM [falling, partial curve] | 6.51 µM [falling, single point]

Looked up above.
In cell number change, COc1ccc(-n2c(SCC(=O)Nc3nc(C)cs3)nnc2-c2ccoc2C)cc1 is entered as -39.7%
In AC50 [2], CCOc1ccc2oc(C(=O)NCc3ccccc3CN3CCCC3)c(C)c2c1 is entered as 16.4 µM [falling, partial curve]
In cell number change, CCCCn1c(N)c(N(CCC(C)C)C(=O)c2ccc(C)o2)c(=O)[nH]c1=O is entered as -20.5%
In AC50 [1], CC(C)CCOc1ccc(C(=O)N2CCCC2C(=O)O)cc1 (configuration not stated) is entered as 2.06 µM [rising, partial curve, poor fit]

Next entries follow:

Row | Structure (SMILES) | cell number change | AC50 [1] | AC50 [2]
21 | Fc1ccc2[nH]c3c(N4CCN(Cc5ccc6c(c5)OCO6)CC4)ncnc3c2c1 | -44.1% |  | 7.31 µM [falling, partial curve, poor fit]
22 | O=C1COc2ccccc2N1Cc1c(F)cccc1Cl | 15.1% | 0.082 µM [rising, full curve, poor fit] | 
23 | Cc1ccc(N(C(=O)c2sc(C)nc2C)C(C(=O)NC(C)(C)C)c2ccncc2)cc1 (configuration not stated) | 2.15% | 0.411 µM [falling, single point] | 
24 | COc1cc(/C=C/C(=O)OCC(=O)NC2CC2)cc(S(=O)(=O)N2CCc3ccccc32)c1OC | 9.51% |  | 
25 | CC(C)(C)c1ccc(C(=O)NCC(=O)OCC(=O)Nc2ccc3c(c2)OCCO3)cc1 | 12.8% |  | 
26 | CCCCCn1c(=S)[nH]c2cc(C(=O)N3CCN(C(=O)OCC)CC3)ccc2c1=O | -1.9% |  | 
27 | S=c1[nH]nc(-c2cnccn2)n1-c1ccccc1 | 10.9% | 29.1 µM [rising, single point] | 
28 | CCN(C(=O)COC(=O)c1oc2ccc(OC)cc2c1C)C1CCCCC1 | -53.9% | 29.1 µM [falling, single point] | 29.1 µM [falling, single point]
29 | CCN1CCN(Cc2nc3cc(NC(=O)COc4ccc([N+](=O)[O-])cc4)ccc3n2C)CC1 | 41.3% |  | 29.1 µM [rising, single point]
30 | COc1ccc(-c2csc(NC(=O)Cc3ccccc3F)n2)c(OC)c1 | 19.2% | 5.17 µM [falling, single point] | 
31 | C=CCn1c(SCC(=O)N2CCN(c3ccc(F)cc3)CC2)nnc1-c1cccs1 |  | 4.11 µM [rising, partial curve] | 
32 | COc1ccc(CCC(C)NCCc2ccc(Cl)cc2Cl)cc1 (configuration not stated) | -48.4% |  | 16.4 µM [falling, single point]
33 | O=C(Nc1sc2c(c1C(=O)NCCO)CCCC2)c1ccco1 | -11.8% | 2.82 µM [falling, partial curve] | 
34 | Brc1ccc(Cn2c(-c3ccc(Br)o3)nc3ccccc32)o1 | -24.4% | 16.4 µM [rising, partial curve, poor fit] | 
35 | COc1cccc(CN2CCCC(N3CCc4ccccc4C3)C2)c1O (configuration not stated) | -4.95% | 6.51 µM [rising, partial curve] | 
36 | COc1ccc(OC)c(CNC(=O)C2CCN(S(=O)(=O)N3CCCCC3)CC2)c1 | -21.5% |  | 
37 | CC1(C)Cc2ccccc2-c2nnc(SCc3ccc(C#N)cc3)n21 | -12.7% | 0.0731 µM [rising, full curve, poor fit] | 
38 | CCOC(=O)N1CCC(NC(=O)c2cccc3c2C(=O)N(CCOC)C3)CC1 | 12.6% | 1.64 µM [falling, partial curve] | 
39 | Cn1cc(Br)c(C(=O)N2CCCCCC2)n1 | -12.2% | 0.92 µM [falling, full curve, poor fit] | 
40 | COC(=O)c1ccc(C(=O)OC)c(NC(=O)COC(=O)CC2CC3CCC2C3)c1 (configuration not stated) |  | 3.26 µM [rising, partial curve] | 1.84 µM [rising, partial curve]

Row | Structure (SMILES) | cell number change | AC50 [1] | AC50 [2]
41 | O=S(=O)(c1ccc(-c2nnc(SCc3ccccc3)o2)cc1)N1CCCC1 | 52.3% | 2.06 µM [rising, single point] | 9.2 µM [rising, partial curve]
42 | O=C1C=C(NCc2ccc(Cl)cc2Cl)C2(CCCCC2)O1 | -31.5% | 16.4 µM [falling, partial curve] | 7.31 µM [falling, partial curve]
43 | Cc1ccc(C)n1NC(=O)c1ccc([N+](=O)[O-])cc1 | -64.6% | 3.55 µM [falling, partial curve, poor fit] | 10 µM [falling, partial curve, poor fit]
44 | CCCCNC(=O)c1ccc(Cn2c(=S)[nH]c3c([nH]c4ccc(OC)cc43)c2=O)cc1 | -47.9% | 5.17 µM [falling, full curve] | 2.91 µM [falling, full curve]
45 | C=CCSc1nnc(NC(=O)CSc2nc3ccccc3[nH]2)s1 | -12.3% |  | 
46 | COc1ccc(C(=O)COC(=O)CCn2nnc(-c3cccs3)n2)cc1 | -8.89% | 1.3 µM [falling, full curve] | 0.00651 µM [falling, full curve]
47 | C/C(=N\NS(=O)(=O)c1cccc([N+](=O)[O-])c1)c1cc2ccccc2o1 |  | 29.1 µM [rising, single point] | 
48 | Fc1ccc(/C=N/NC(=S)Nc2cccnc2)cc1F | -19.9% | 0.461 µM [falling, partial curve, poor fit] | 
49 | CCOc1ccc(-c2cc(C(=O)NCC3CCCO3)c3ccccc3n2)cc1 (configuration not stated) | 40.8% |  | 6.51 µM [rising, partial curve]
50 | COc1ccc(C(=O)NCC2CCCN2S(=O)(=O)c2cccs2)cc1OC (configuration not stated) | 1.2% |  | 
51 | CC(NC(N)=O)C(=O)NCC(=O)OCc1ccccc1 (configuration not stated) | -30.4% |  | 
52 | CCCNC(=O)c1ccc2c(c1)ncn2-c1ccccc1OC |  |  | 0.058 µM [rising, full curve, poor fit]
53 | COC(=O)c1sc(N)c(C(=O)OC)c1COC(=O)CNS(=O)(=O)c1ccc(C)c(C)c1 | 8.2% |  | 
54 | C=CCn1c(SCC(=O)Nc2nncs2)nnc1-c1ccco1 | 5.71% |  | 
55 | COc1ccc(C2C(C#N)=C(N)Oc3n[nH]c(C)c32)cc1Cn1nnc2ccccc21 (configuration not stated) | -19.8% | 0.92 µM [rising, full curve] | 
56 | CCc1nc2ccccc2c(C(=O)OCC(=O)Nc2ccc(S(=O)(=O)N3CCOCC3)cc2)c1C | -18.1% |  | 
57 | O=C(Nc1ccccc1)c1ccc2nsnc2c1 | 24.1% |  | 1.84 µM [rising, full curve, poor fit]
58 | CCCn1c(=O)c2[nH]c(C3CCCC3)nc2n(CCC)c1=O | 29.7% | 1.64 µM [rising, full curve] | 4.11 µM [rising, full curve, poor fit]
59 | Cn1cnc2cc(NCc3ccccc3Cl)ccc21 | -7.09% |  | 
